Construct, isoform or probe ends are uncertain for at least one entry. The comparison behind a weaker result is the experiment's own reference, which may not be listed here. Where a protein sequence is shown, tags need not be part of it. At least one verdict was read from the data and is not stated in words by the source.
Target: T1, PTBP1 RRM1 (human) (UniProt P26599)
T1 sequence (looked up): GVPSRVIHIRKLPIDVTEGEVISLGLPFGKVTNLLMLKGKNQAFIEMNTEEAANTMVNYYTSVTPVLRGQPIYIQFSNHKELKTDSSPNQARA
Test: EMSA
Settings: EMSA: 10 mM Hepes pH 7.3, 20 mM KCl, 1 mM MgCl2, 1 mM DTT, tRNA (10 ug/ml in Methods, 10 ug/uL in Fig S2 legend), room temperature, 1% TBE agarose, recombinant protein, residues 55-147, protein details: N-terminal His6 (pET28a), label: 3' FTSC (fluorescein-5-thiosemicarbazide)

**Q.** Does “ACGCUUCUCUCAGGGAAAAACAUGC [MCL1 3'UTR 25-mer RNA]” bind (30 uM RRM1, 50 nM RNA, no MCL1, tRNA)?
**A.** Result: binds

**Q.** Does “ACGCUUCUCUCAGGGAAAAACAUGC [MCL1 3'UTR 25-mer RNA]” bind (plus MCL1 50-140 uM, MCL1 displaces RNA)?
**A.** Result: binds more weakly

From PMC10244698, “Polypyrimidine tract binding protein 1 (PTBP1) contains a novel regulatory sequence, the rBH3, that binds the prosurvival protein MCL1” (The Journal of Biological Chemistry, 2023)
